This note sets out measurements from paper PMC8593071.

Protein sequences, listed by entry. Tags and fused reporters are not part of them.
UniProt Q91XJ1: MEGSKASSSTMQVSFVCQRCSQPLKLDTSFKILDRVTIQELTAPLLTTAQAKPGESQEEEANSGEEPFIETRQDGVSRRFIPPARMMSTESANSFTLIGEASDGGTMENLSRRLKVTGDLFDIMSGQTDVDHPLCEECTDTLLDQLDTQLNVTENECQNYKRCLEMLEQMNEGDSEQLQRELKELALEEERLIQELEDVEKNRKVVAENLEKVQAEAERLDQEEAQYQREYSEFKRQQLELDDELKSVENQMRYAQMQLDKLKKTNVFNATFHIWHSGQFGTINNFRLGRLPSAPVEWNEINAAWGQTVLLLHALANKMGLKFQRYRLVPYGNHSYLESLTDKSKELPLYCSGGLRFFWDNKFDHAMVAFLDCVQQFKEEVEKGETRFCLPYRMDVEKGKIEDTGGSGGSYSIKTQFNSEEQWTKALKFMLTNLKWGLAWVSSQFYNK

No constants are given. Whether binding was seen depends on the method and setting. In cells and extracts the contact can be indirect. Some binding calls cover weakened binding; strength is not graded here.

The assay deals with Beclin1 (rat (endogenous in primary cortical neurons)) (UniProt Q91XJ1). Put plainly: co-IP; lysates of primary rat cortical neurons, untreated or treated with 1.5 µM Aβ for 16 h (overnight); anti-Beclin1 antibody on protein A agarose, overnight at 4 °C, blot for Puma; reverse IP with Puma antibody, blot for Beclin1.

B1: Puma (p53 upregulated modulator of apoptosis) (protein, UniProt Q80ZG6 1-193)
chain: MARARQEGSSPEPVEGLARDSPRPFPLGRLMPSAVSCGLCEPGLPAAPAAPALLPAAYLCAPTAPPAVTAALGGPRWPGGHRSRPRGPRPDGPQPSLSPAQQHLESPVPSAPEALAGGPTQAAPGVRVEEEEWAREIGAQLRRMADDLNAQYERRRQEEQHRHRPSPWRVMYNLFMGLLPLPRDPGAPEMEPN
For B1, the binding result is “binds”.
